Results on eleven molecules are retold here after PubChem BioAssay AID330 (DTP/NCI, 2004).

The test system of this test is P388 leukemia ip, CD2F1 mice, survival T/C. The experiment in a line: NCI In Vivo Anticancer Drug Screen. Data for tumor model P388 Leukemia (intraperitoneal) in CD2F1 (CDF1) mice. The following applies: T/C endpoint: median survival time, higher T/C = longer survival.
The mark [1] stands for this setting: dose: 200.0 mg/kg/injection, schedule: Q01DX005 (ip), vehicle: saline.

The list shows only some results of the screen, not a fair sample: it is rich in T/C values a quarter to a half above the control, in often repeated tests (any T/C) and in doses without a T/C. Other doses and runs of a compound stand elsewhere. T/C: endpoint of the treated group in % of that of the vehicle group. Some entries give survivors of the animals treated and no T/C: the source holds a T/C of zero for them, seemingly a mark for toxic or unscored doses. Some doses without a T/C left all or most animals alive at the check, yet need not have been tolerated: the source hardly ever lists a survival T/C far under the control, and the zero likely stands for such cases as well. Counts of survivors are from the toxicity check (mostly the fifth day) where no day follows; animals may have died later. Schedules are NCI's codes, taken here to give the interval after Q, in days (D) or hours (H), and the number of doses after X. Some structures stand for samples that the source files as different forms (salt, stereo form or complex); doses refer to the form tested. Some entries hold several experiments; their values stand side by side, smallest first. For survival time, the PubChem record calls one and a half times the control and up active, and a quarter to a half above the control has no call in these data; cut-offs in other NCI protocols can differ. Some T/C values are followed by the survivors on the day toxicity was checked, most often the fifth; where none is given, no animal had died by that day. Signs of the kind (2×) say how often a value occurs here.

Consider `C(=C\c1cc2cc(C3=NCCN3)ccc2o1)/c1ccc(C2=NCCN2)cc1`, for which the T/C (dose: 12.5 mg/kg/injection, schedule: Q04DX003 (ip), vehicle: saline) was 127 % of control; the T/C (dose: 25.0 mg/kg/injection, schedule: Q04DX003 (ip), vehicle: saline) was 128 % of control; the T/C (dose: 50.0 mg/kg/injection, schedule: Q04DX003 (ip), vehicle: saline) was 140 % of control [5 of 6 alive]. Also, the survivor count was 4 of 6 (dose: 200.0 mg/kg/injection, schedule: Q04DX003 (ip), vehicle: saline) and 0 of 6 (dose: 400.0 mg/kg/injection, schedule: Q04DX003 (ip), vehicle: saline).
In the case of `CCc1cccc(C)c1NC(=O)C(=O)C(C#N)c1ccc(CC#N)cc1` (centres undefined), the survivor count (dose: 240.0 mg/kg/injection, schedule: Q01DX005 (ip), vehicle: saline with Tween-80) is reported as 3 of 6.
As to `O=NNc1cnccn1`, the T/C runs as follows: (dose: 6.25 mg/kg/injection, schedule: Q01DX009 (ip), vehicle: water) 127 % of control; (dose: 11.0 mg/kg/injection, schedule: Q01DX009 (ip), vehicle: water, evaluated on day 30) 144 % of control; (dose: 11.0 mg/kg/injection, schedule: Q01DX009 (ip), vehicle: water, evaluated on day 44) 134 % of control; (dose: 11.0 mg/kg/injection, schedule: Q01DX009 (ip), vehicle: water, evaluated on day 45) 133 and 145 % of control; (dose: 11.0 mg/kg/injection, schedule: Q01DX009 (ip), vehicle: water, evaluated on day 60) 131 % of control; (dose: 11.3 mg/kg/injection, schedule: Q01DX009 (ip), vehicle: other) 131 % of control. The T/C by setting is: (dose: 11.3 mg/kg/injection, schedule: Q01DX009 (ip), vehicle: water) 141 % of control (2×); (dose: 12.5 mg/kg/injection, schedule: Q01DX009 (ip), vehicle: water) 126, 138, 143 % of control; (dose: 16.9 mg/kg/injection, schedule: Q01DX009 (ip), vehicle: other) 140 % of control; (dose: 16.9 mg/kg/injection, schedule: Q01DX009 (ip), vehicle: water) 144 % of control (2×); (dose: 17.0 mg/kg/injection, schedule: Q01DX009 (ip), vehicle: water, evaluated on day 30) 155 % of control; (dose: 17.0 mg/kg/injection, schedule: Q01DX009 (ip), vehicle: water, evaluated on day 40) 165 % of control. For the same molecule, the T/C (dose: 17.0 mg/kg/injection, schedule: Q01DX009 (ip), vehicle: water, evaluated on day 44) was 149 % of control; the T/C (dose: 17.0 mg/kg/injection, schedule: Q01DX009 (ip), vehicle: water, evaluated on day 45) is recorded as 141, 158, 159, 160, 161, 165, 168, 171 % of control; the T/C (dose: 17.0 mg/kg/injection, schedule: Q01DX009 (ip), vehicle: water, evaluated on day 60) is 147 % of control; the T/C (dose: 25.0 mg/kg/injection, schedule: Q01DX009 (ip), vehicle: water, evaluated on day 30) is 132, 186, 187, 189, 195, 207 % of control; the T/C (dose: 25.0 mg/kg/injection, schedule: Q01DX009 (ip), vehicle: water, evaluated on day 40) was 197 % of control; the T/C (dose: 25.0 mg/kg/injection, schedule: Q01DX009 (ip), vehicle: water, evaluated on day 44) is 172 % of control. Moreover, the T/C is, setting by setting: (dose: 25.0 mg/kg/injection, schedule: Q01DX009 (ip), vehicle: water, evaluated on day 45) 161, 184, 186, 190, 193, 206, 210 [9 of 10 alive], 216 % of control; (dose: 25.0 mg/kg/injection, schedule: Q01DX009 (ip), vehicle: water, evaluated on day 60) 183 % of control; (dose: 38.0 mg/kg/injection, schedule: Q01DX009 (ip), vehicle: water, evaluated on day 40) 279 % of control; (dose: 38.0 mg/kg/injection, schedule: Q01DX009 (ip), vehicle: water, evaluated on day 41) 240 % of control (2×); (dose: 38.0 mg/kg/injection, schedule: Q01DX009 (ip), vehicle: water, evaluated on day 44) 258 % of control; (dose: 38.0 mg/kg/injection, schedule: Q01DX009 (ip), vehicle: water, evaluated on day 45) 200, 268, 276, 287, 294, 306, 361 % of control. Further, the T/C (dose: 56.0 mg/kg/injection, schedule: Q01DX009 (ip), vehicle: water, evaluated on day 30) was 111 % of control; the T/C (dose: 56.0 mg/kg/injection, schedule: Q01DX009 (ip), vehicle: water, evaluated on day 40) is 106 % of control; the T/C (dose: 56.0 mg/kg/injection, schedule: Q01DX009 (ip), vehicle: water, evaluated on day 45) is 105, 107, 108, 110, 114, 120, 125 % of control; the T/C (dose: 56.0 mg/kg/injection, schedule: Q01DX009 (ip), vehicle: water, evaluated on day 60) is 283 % of control; the T/C (dose: 57.0 mg/kg/injection, schedule: Q01DX009 (ip), vehicle: other) is 137 % of control. Besides, for the setting “dose: 100.0 mg/kg/injection, schedule: Q01DX009 (ip), vehicle: water”, the survivor count is on record as 5 of 6.
Turning to `CCOC(=O)C1=C(c2ccccc2)Nc2ccccc2[S+]1C` (centres undefined), the survivor count reads like this: (dose: 120.0 mg/kg/injection, schedule: Q01DX005 (ip), vehicle: saline) 0 of 6; (dose: 240.0 mg/kg/injection, schedule: Q01DX005 (ip), vehicle: saline) 0 of 6.
On to `O=C1OC(c2ccc([N+](=O)[O-])cc2)=N/C1=C\c1ccc(Cl)cc1`, for which the survivor count reads like this: (dose: 6.25 mg/kg/injection, schedule: Q01DX009 (ip), vehicle: Klucel (hydroxypropylcellulose) (HPC)) 6 of 6; (dose: 25.0 mg/kg/injection, schedule: Q01DX009 (ip), vehicle: Klucel (hydroxypropylcellulose) (HPC)) 6 of 6; (dose: 50.0 mg/kg/injection, schedule: Q01DX009 (ip), vehicle: Klucel (hydroxypropylcellulose) (HPC)) 6 of 6; (dose: 100.0 mg/kg/injection, schedule: Q01DX009 (ip), vehicle: Klucel (hydroxypropylcellulose) (HPC)) 5 of 6; (dose: 200.0 mg/kg/injection, schedule: Q01DX009 (ip), vehicle: Klucel (hydroxypropylcellulose) (HPC)) 6 of 6; (dose: 400.0 mg/kg/injection, schedule: Q01DX009 (ip), vehicle: Klucel (hydroxypropylcellulose) (HPC)) 6 of 6.
Turning to `COC(=O)C(=C(C)C)S(=O)c1ccccc1` (centres undefined), the survivor count is 1 of 6 (dose: 100.0 mg/kg/injection, schedule: Q01DX005 (ip), vehicle: saline) and 0 of 6 under setting [1].
For `CC1=CC(=Nc2ccc(N(CCCl)CCCl)cc2)C(C)=C(C)C1=O`, the T/C was 126 and 144 % of control (dose: 200.0 mg/kg/injection, schedule: Q01DX001 (ip), vehicle: Klucel (hydroxypropylcellulose) (HPC)); 131 and 141 % of control (dose: 400.0 mg/kg/injection, schedule: Q01DX001 (ip), vehicle: Klucel (hydroxypropylcellulose) (HPC)).
For the molecule `O=S(=O)(N/N=C/c1ccncc1)c1ccccc1`, the T/C (dose: 25.0 mg/kg/injection, schedule: Q01DX009 (ip), vehicle: other) is 130 % of control; the T/C (dose: 50.0 mg/kg/injection, schedule: Q01DX009 (ip), vehicle: other) was 130 and 134 % of control; the T/C (dose: 100.0 mg/kg/injection, schedule: Q01DX009 (ip), vehicle: other) is 138 % of control [5 of 6 alive]; the T/C (dose: 200.0 mg/kg/injection, schedule: Q01DX009 (ip), vehicle: other) is 128 and 138 % of control [5 of 6 alive]. The survivor count (dose: 400.0 mg/kg/injection, schedule: Q01DX009 (ip), vehicle: other) is 3 of 6 and 4 of 6.
As to `CCOC(=O)Nc1cc2c(c(N)n1)N=C(c1ccc(C)cc1)CN2`, the T/C (dose: 12.0 mg/kg/injection, schedule: Q01DX005 (ip), vehicle: saline with Tween-80) was 130 % of control and the T/C (dose: 12.5 mg/kg/injection, schedule: Q01DX005 (ip), vehicle: saline with Tween-80) was 133 % of control. Also, the survivor count is listed as 5 of 5 (dose: 25.0 mg/kg/injection, schedule: Q01DX005 (ip), vehicle: saline with Tween-80) and 5 of 5 (dose: 50.0 mg/kg/injection, schedule: Q01DX005 (ip), vehicle: saline with Tween-80).
In the case of `O=C1NC(=O)C2C3CCC(O3)C12` (centres undefined), the survivor count under setting [1] was 0 of 6 and 2 of 6.
Turning to `CCCCNC(=O)C1CC2c3cccc4c3c(cn4C)CC2N(C)C1` (centres undefined), for the setting “dose: 100.0 mg/kg/injection, schedule: Q01DX001 (ip), vehicle: saline”, the survivor count is listed as 3 of 6.
